Reference: PubChem BioAssay AID493014 (National Center for Advancing Translational Sciences (NCATS), 2011)
“And” between values parts separate entries of the source, which are not always exact repeats. Equal entries are not always repeated. Some of the results follow. Shown are side measurements of this screen, not its main read-out; they come without a call. Most of these compounds were active or inconclusive in the main read-out, so they are no random draw. Potencies come from curve fits of mixed quality, noted in brackets.

Experiment: qHTS Assay to Find Inhibitors of Chronic Active B-Cell Receptor Signaling
Conditions: ABC-DLBCL IkBa-CBG/CBR reporter, luminescence ratio (green luciferase fused to IkBa over red control in TMD8 lymphoma cells), 4 h
Method in brief: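 Compounds up to 46 uM were incubated four hours with TMD8 cells whose green CBG68 luciferase is fused to IkappaBalpha; red CBR luminescence normalised the signal, and concentration-effect curves were fitted to fusion, red and ratio data.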

[1] = measured here: CBR red luminescence, cell number
[2] = measured here: IkBa-CBG green luminescence

| Compound | AC50 [1] | AC50 [2] |
| --- | --- | --- |
| COc1ccc(C(=O)CC(=O)C(=O)Nc2c(C)cccc2C)cc1 | 22.4 µM [rising, single point] | – |
| CN(CC(=O)O/N=C(\N)c1cccc([N+](=O)[O-])c1)S(=O)(=O)c1ccccc1 | 29.1 µM [rising, single point] | – |
| CC(C)(C)c1nnc(NC(=O)Nc2ccc(Cl)cc2)s1 | 35.5 µM [rising, single point] | – |
| ClC(/C=N/n1cnnc1)=C/c1ccccc1 | 35.5 µM [falling, single point] | – |
| O=c1[nH]c(C2CCN(S(=O)(=O)c3ccc(C(F)(F)F)cc3)CC2)nc2c1nnn2Cc1ccc(F)cc1 | 35.5 µM [falling, single point] | – |
| CN(Cc1nc(-c2cccs2)no1)CC(O)c1ccccc1 (configuration not stated) | 11.2 µM [falling, partial curve, poor fit] | – |
| O=C(NNC(=O)c1ccccc1-n1cccc1)c1ccc(F)cc1 | 10 µM [rising, partial curve, poor fit] | – |
| Fc1nc(N2CCCC2)c(F)c(Oc2ccccc2Oc2c(F)c(F)nc(N3CCCC3)c2F)c1F | 22.4 µM [falling, single point] | – |
| CN1C(=O)S/C(=C/c2ccc(OCc3cccc(C(=O)O)c3)cc2)C1=O | 17.8 µM [falling, partial curve, poor fit] | – |
| COc1ccc(SC[C@H](Cc2ccccc2)N2CCN(CCc3ccccc3)CCC2=O)cc1 | 35.5 µM [falling, single point] | – |
| O=C1OC(c2ccc(F)cc2)=C/C1=C\c1ccc([N+](=O)[O-])o1 | 22.4 µM [falling, partial curve, poor fit] | – |
| CC(C)CC(=O)N1CCN(S(=O)(=O)c2ccc3ccccc3c2)CC1 | 23.1 µM [falling, partial curve, poor fit] | – |
| Cn1c(=O)n(C)c2cc(NC(=O)c3cc4ccccc4o3)ccc21 | 29.1 µM [falling, single point] | – |
| Cn1c(=O)[nH]c(=O)c2c1nc(SCCN1CCOCC1)n2CCCc1ccccc1 | 2.06 µM [rising, single point] | – |
| Cc1ccc2ccc3cccc4ccc1c2c34 | 14.6 µM [rising, partial curve] | – |
| S=c1[nH]nc(-c2ccncc2)n1/N=C/C(Cl)=C\c1ccccc1 | 14.1 µM [falling, partial curve] | 25.1 µM [falling, single point] |
| COC(=O)c1ccc(C(=S)NCC2(N(C)C)CCCCC2)cc1 | 35.5 µM [falling, partial curve, poor fit] | – |
| O=C1c2ccccc2C(=O)N1c1cccc2cccnc12 | 18.4 µM [rising, partial curve, poor fit] | – |
| CC(=O)n1nc(-c2ccccc2)nc1NCc1cccs1 | 10 µM [falling, partial curve] | – |
| CCN(CC)c1ccc(NC(=O)CN2CCN(S(=O)(=O)c3cc(Cl)ccc3OC)CC2)cc1 | 29.1 µM [falling, single point] | – |

3 entries from above in a different format:
O=c1[nH]c(C2CCN(S(=O)(=O)c3ccc(C(F)(F)F)cc3)CC2)nc2c1nnn2Cc1ccc(F)cc1
  AC50 [1]: 35.5 µM [falling, single point]
CN(Cc1nc(-c2cccs2)no1)CC(O)c1ccccc1 (configuration not stated)
  AC50 [1]: 11.2 µM [falling, partial curve, poor fit]
O=C(NNC(=O)c1ccccc1-n1cccc1)c1ccc(F)cc1
  AC50 [1]: 10 µM [rising, partial curve, poor fit]

Further results:

| Compound | AC50 [1] | AC50 [2] |
| --- | --- | --- |
| N#Cc1c(NC(=O)CCn2cnc3ccccc3c2=O)oc(-c2ccccc2)c1-c1ccccc1 | 14.6 µM [falling, partial curve] | 9.2 µM [rising, partial curve, poor fit] |
| O=C(CCSc1nnc2scc(-c3ccccc3)n12)Nc1nc(-c2ccccc2)ns1 | 35.5 µM [rising, partial curve, poor fit] | – |
| COC(=O)C1=C(C)N(Cc2ccccc2)C(=NCCc2cccnc2)N[C@H]1c1ccc(Br)cc1 | 31.6 µM [falling, single point] and 16.4 µM [falling, partial curve, poor fit] | – |
| Cc1oc(-c2ccc3c(c2)OCCO3)cc1C(=O)NC(CCC(=O)O)C(=O)O (configuration not stated) | 35.5 µM [falling, single point] | – |
| CCNC(=O)c1ccc(C23CC4CC(CC(C4)C2)C3)o1 | 7.94 µM [rising, partial curve] | – |
| NC(=O)C1CCN(C(=O)CSc2nc(O)cc(=O)[nH]2)CC1 | 14.1 µM [rising, partial curve, poor fit] | – |
| CCOC(=O)c1ccc(NC2=CC(=O)C(=O)c3ccccc32)cc1 | 0.562 µM [falling, partial curve, poor fit] | – |
| COc1ccc(-n2cccc2/C=C/[N+](=O)[O-])cc1 | 6.51 µM [falling, partial curve] | 29.1 µM [rising, partial curve, poor fit] |
| CC(/C=C1\SC(=O)N(CCCC(=O)O)C1=O)=C\c1ccccc1 | 0.146 µM [falling, full curve] | – |
| CC(=O)c1nn(-c2cccc(Br)c2)cc1C(=O)c1ccc(Cl)cc1 | 18.4 µM [rising, single point] | – |
| O=[N+]([O-])c1ccccc1S(=O)(=O)N1CCSCC1 | 2.91 µM [rising, single point] | – |
| C/C(=N/NC(=O)c1ccco1)c1ccc(NC(=O)c2ccc(Br)o2)cc1 | 8.91 µM [falling, partial curve] | – |
| Nn1c(-c2ccc(O)cc2)nnc1-c1ccc(O)cc1 | 35.5 µM [falling, single point] | – |
| Cc1ccc(OCC(=O)O/N=C(\N)Cc2ccc([N+](=O)[O-])cc2)cc1C | 6.31 µM [rising, single point] | – |
| COc1ccccc1N1CCN(C(=O)c2ccc3nc(-c4ccco4)c(-c4ccco4)nc3c2)CC1 | – | 16.4 µM [rising, partial curve, poor fit] |
| Cc1ccc(C(=O)c2c3ccccc3[n+]([O-])n2CCC(=O)O)cc1 | 14.6 µM [rising, partial curve, poor fit] | – |
| O=C(COc1ccc(S(=O)(=O)N2CCCC2)cc1)Nc1ccc(F)cc1 | 2.24 µM [falling, full curve] | – |
| CCCCOP(=O)(OCCCC)C1(NS(=O)(=O)c2ccccc2)C=CC(=O)c2ccccc21 (configuration not stated) | 35.5 µM [falling, single point] | – |
| COc1ccccc1NC(=O)N1CCN(c2cccc(C(F)(F)F)c2)CC1 | 2.91 µM [rising, single point] | – |
